# Results from patent publication US11261210B2, “Glycosylated antitumor ether lipids as novel cancer stem cell cytotoxic agents” (UNIVERSITY OF MANITOBA, priority 2012, dated 2022).
# For at least one compound, name, drawing or mass did not settle the structure. Some entries share one result that the patent states for a list of compounds.
# How the values were obtained:
# [1] = system: BT-474 cancer stem cells; experiment: BT-474 cancer stem cell spheroid formation; type: cell-based, human; conditions: BT474 cancer stem cells, FIG. 1B
# Protocol: FIG. 1. A. Effect of β-C-Gln (β-AC1) on BT-474 cancer stem cell spheroid formation. BT-474 cancer stem cells were obtained by staining BT474 cells for ALDH1 and sorting the stained from unstained cells by flow cytometry. The ALDH1 stained cells were grown in ultra-low adhesion 6-well plates in mammocult medium for 7 days. The spheroids were isolated and trypsinised to generate single cells. The cells were then seeded for 2 days in ultra-low adhesion 6-well plates, and subsequently incubated in the absence or presence of C-Gln for up to 12 days. The media was replenished after 6 days. B. Effect of β-O-Gln (β-AO1), α-O-Gln (α-AO1), or ET-18-OCH3 on BT-474 cancer stem cell spheroid formation.
# Breast cancer stem cell enriched cell population was obtained by staining breast cancer cell lines BT-474 and JIMT-1 for aldehyde dehydrogenase 1 (ALDH1) using the assay kit from Stem Cell Technologies (Vancouver BC, Canada) according to the instructions of the manufacturer with the appropriate controls. […] The cell numbers were determined with a Coulter ZM counter and the cells were seeded into the appropriate low adhesion tissue culture ware for various studies. […]
# [2] = system: BT-474 stem cell spheroids; experiment: Morphology of BT-474 stem cell spheroids under static conditions; type: cell-based, human; conditions: 6 days, FIG. 5B
# Protocol: FIG. 5. A. Effect of β-O-Gln, C-Gln or ET-18-OCH3 on morphology of JIMT1 stem cell spheroids. B. Effect of β-O-Gln, α-O-Gln or ET-18-OCH3 on morphology of BT-474 stem cell spheroids. BT-474 cancer stem cells were grown for 7 days in ultra low adhesion 6 well plates. The tumorspheres formed were harvested, trypsinised and cell numbers were determined. Equal numbers of cells were dispersed into 48-well plates in mammocult medium and incubation was under static conditions. After spheres were formed, they were incubated with β-O-Gln, α-O-Gln or β-C-Gln (0, 10, or 30 μM) for 6 days. The medium was replenished after 3 days. Images in FIG. 5A were taken at day 0 and 72 h following addition of the compounds. Images in FIG. 5B were taken after 6 days of incubation with the compounds.
# The effects of the GAELs, β-O-Gln, α-O-Gln or C-Gln on the growth and viability of tumorspheres growing under static conditions was also investigated. Studies were also conducted with ET-18-OCH3 as a representative of the ALP subclass and an apoptosis inducing compound. Under static conditions a large number of spheroids are formed in control incubations with the vehicle (0.1% EtOH). […] Complete disintegration is observed after incubation with GAELs for 6 days (FIG. 5B). […] Thus, while some disintegration had occurred it was not as comprehensive as those observed with the GAELs.
# [3] = system: JIMT-1 breast cancer stem cells; experiment: JIMT-1 cancer stem cell spheroid formation; type: cell-based, human; conditions: JIMT-1, FIGS. 2A and 2B
# [4] = system: JIMT-1 stem cell spheroids; experiment: Morphology of JIMT-1 stem cell spheroids; type: cell-based, human; conditions: 6 days, FIG. 7B
# Protocol: FIG. 7. A. Effect of β-O-Gln, β-C-Gln or ET-18-OCH3 on morphology of JIMT-1 stem cell spheroids. B. Effect of β-O-Gln, α-O-Gln or ET-18-OCH3 on morphology of JIMT-1 stem cell spheroids. JIMT-1 cancer stem cells were grown for 7 days in ultra low adhesion 6 well plates. The tumorspheres formed were harvested, trypsinised and cell numbers were determined. Equal numbers of cells were dispersed into 48-well non-treated plates in mammocult medium and incubated in a CO2 incubator under static conditions. After spheres were formed, O-Gln, C-Gln or ET-18-OCH3 were added (0, 10, 20 and 30 μM) and incubation was for a total of 6 days with media supplementation after 3 days. Images for FIG. 7A were taken at day 0 and after 72 h following addition of the compounds. Images for FIG. 7B were taken after 6 days incubation with the compounds.
# The above studies were repeated with JIMT-1 spheroids.
# [5] = system: BT-474 stem cell tumorspheres; experiment: Viability of BT-474 stem cell tumorspheres (MTS assay); type: cell-based, human; conditions: 6 days; for Viability (% 0f control): 30 μM, Table 2
# Protocol: FIG. 6. Effect of β-O-Gln, α-O-Gln, β-C-Gln and ET-18-OCH3 on the viability of BT-474 stem cell tumorspheres. BT-474 cancer stem cells were grown for 7 days in ultra low adhesion 6 well plates. The tumorspheres formed were harvested, trypsinised and cell numbers were determined. Equal numbers of cells were dispersed into 48-well plates in mammocult medium and incubation was under static conditions. Wells with only medium but no cells were treated in an identical manner to serve as blanks. After spheres were formed, β-O-Gln, α-O-Gln, β-C-Gln or ET-18-OCH3 (0, 10, 20, 30 μM) were added and incubation was for a total of 6 days. At the end of the incubation, the MTS reagent was added to each well and the plates were rotated on a Nutator mixer in a 5% CO2 incubator for 4 h. The absorbance of each well was read at 470 nm. The results are the means±standard deviation of 4 independent determinations.
# Cell viability assay: Cell viability was determined by the Cell Titre 96 Aqueous One solution proliferation assay ((MTS assay; Promega) according to the instructions of the manufacturer.
# The viability of the material at the end of the incubation was determined using the MTS assay. […] In cells incubated with 10 μM of β-C-Gln, 90% of the cells were not viable. […] In contrast, in experiments with ET-18-OCH3, 10 or 20 μM ET-18-OCH3 had little effect on the viability of BT-474 spheroids and at a concentration of 30 μM viability was around 45% relative to controls. The results of the integrity studies correlate well with the viability studies.
# We also investigated the effect of α-O-Galn, β-O-Galn or α-O-Mann on the viability of BT-474 spheroids. The spheroids were incubated with the compounds for 6 days and the viability was assessed by the MTS assay. […] Viability was down to around 10% at 10 μM concentration of the compound. […] At a concentration of 30 μM a significant proportion (26-32%) of the BT-474 cancer stem cells were still viable. The cytotoxic efficacy of GAELs is dependent on the type of sugar moiety and the anomeric form in some instances.
# [6] = cited from earlier work
compound,measurement,setting,value
"CCCCCCCCCCCCCCCCCCOCC(COP(=O)([O-])OCC[N+](C)(C)C)OC (centres unmarked) [ET-18-OCH3, 1-O-octadecyl-2-O-methyl-glycerophosphocholine, reference compound]",spheroid formation,[1],did not prevent spheroid formation
same,spheroid integrity,[2],relatively intact spheroids were observed
same,spheroid formation,[3],did not prevent spheroid formation
same,spheroid integrity,[4],large numbers of relatively large intact spheroids
same,effect on viability,[5]; 10 or 20 μM,little effect
CCCCCCCCCCCCCCCCOCC(CO[C@H]1O[C@H](CO)[C@@H](O)[C@H](O)[C@@H]1N)OC (stereo partly drawn) [α-O-Mann],Viability (% 0f control),[5],26-32 % 0f control
"CCCCCCCCCCCCCCCCOC[C@H](COC1O[C@H](CO)[C@H](O)[C@H](O)[C@H]1N)OC (stereo partly drawn) [β-O-Galn, 1-O-Hexadecyl-2-O-methyl-3-O-(2′-amino-2′-deoxy-D-galactopyranosyl)-sn-glycerol]",Viability (% 0f control),[5],26-32 % 0f control
"CCCCCCCCCCCCCCCCOC[C@H](CO[C@@H]1O[C@H](CO)[C@@H](O)[C@H](O)[C@H]1N)OC [β-O-Gln, 1-O-hexadecyl-2-O-methyl-3-O-(2′-amino-2′-deoxy-β-D-glucopyranosyl)-sn-glycerol]",cleavage of Bid,[6],nor was cleavage of Bid observed
same,cytosolic cathepsin levels relative to controls,[6],significantly greater
same,"killing of cells devoid of caspases 9 and 3, Apaf1 and ASK1",[6],killed cells
same,loss of mitochondria membrane permeability (MMP) or cytochrome C leakage into the cytosol,[6],does not induce loss
